According to PubChem BioAssay AID1347075 (National Center for Advancing Translational Sciences (NCATS), 2019):
Out of some 400,000 compounds screened, about 5,500 (1.4%) were called active. This list was built around the results that the source calls inconclusive (neither active nor inactive); the mix of calls is not that of the screen. Calls follow the shape of the dose curve; as a rule, active = well fitted cell-killing curve with a large enough effect; inconclusive = small, poorly fitted or top-dose-only effect, or effect the other way; inactive = flat fitted curve, though single readings scatter. A potency beside an inconclusive call is a rough fit, not a confirmed value.

Test: qHTS assay for MDR1-selective chemotherapeutics: Primary screen using the parental adenocarcinoma cell KB-3-1; also: nearly all actives have a fitted effect of over 60% in size
Details: KB-3-1 viability, CellTiter-Glo ATP luminescence, 72 h; activity change, negative = cytotoxic: at 46.1 µM (top of the series)
Method in brief: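 Cytotoxicity measured as CellTiter-Glo luminescence after 72 h at 37 C. Compound titrations were pinned onto drug-naive KB-3-1 parental adenocarcinoma cells grown in DMEM with 10% FBS, and normalized data fitted to concentration-response curves.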
% is scaled to controls: 0 for no effect and ±100 for the full control effect; potency is read from the fitted curve at half-maximal effect.

**Q.** With `CC(=O)N1CCc2cc(S(=O)(=O)NCc3ccc(C)cc3)ccc21` as the compound, how does the Potency read?
**A.** inconclusive: 18.4 µM [cytotoxic, single point]

**Q.** For `COc1cc(OC)c2cc(C(=O)N/N=C/c3ccccc3O)[nH]c2c1`, which Potency is on record?
**A.** inconclusive: 11.6 µM [cytotoxic, partial curve]

**Q.** Which Potency does the source give for `CN(C)CCNC(=O)c1cccc(NS(=O)(=O)c2ccc(Cl)c(Cl)c2)c1` here?
**A.** inactive

**Q.** With `CC(C)Cn1c(N)c(C(=O)COC(=O)CN2C(=O)C3CC=CCC3C2=O)c(=O)n(C)c1=O` (stereo unspecified) as the compound, how does the Potency read?
**A.** inconclusive: 29.1 µM [cytotoxic, single point]

**Q.** Which Potency does the source give for `Cc1ccc(-c2nc3ccccc3o2)cc1NC(=S)NC(=O)c1cccs1` here?
**A.** inactive

**Q.** With `N#Cc1nc(N)nc(N(c2ccccc2)c2ccccc2)n1` as the compound, how does the Potency read?
**A.** inconclusive: 25.9 µM [cytotoxic, single point]

**Q.** Which Potency does the source give for `CCCCC1=CC2=CC(=O)C(C)(OC(=O)CC)C(=O)C2=CN1Cc1ccc(OC)cc1` (stereo unspecified) here?
**A.** inactive

**Q.** For `CCCOc1ccc(CNC(=O)c2oc3ccc4c(c3c2C)C(=O)CC(C)(CC)O4)cc1` (stereo unspecified), which Potency is on record?
**A.** inactive

**Q.** Which Potency does the source give for `CC(C)(C)CC(=O)NC(=S)NCc1ccccc1` here?
**A.** inconclusive: 2.59 µM [cytotoxic, partial curve, poor fit]

**Q.** Which Potency does the source give for `CCc1[nH]nc2c1C(c1ccc(Br)s1)C(C#N)=C(N)O2` (stereo unspecified) here?
**A.** inconclusive: 28.2 µM [cytotoxic, single point]

**Q.** For `Cc1ccc(S(=O)(=O)N(C)C[C@H]2Oc3c(NC(=O)Nc4cccc5ccccc45)cccc3C(=O)N([C@@H](C)CO)C[C@@H]2C)cc1`, which Potency is on record?
**A.** inconclusive: 20.6 µM [cytotoxic, single point]

**Q.** Which Potency does the source give for `Cc1oc(-c2ccc3c(c2)OCCO3)cc1C(=O)O` here?
**A.** inconclusive: 13 µM [cytotoxic, partial curve]

**Q.** With `Cc1ccc(SC(C)C(=O)Nc2ccncc2)cc1` (stereo unspecified) as the compound, how does the Potency read?
**A.** inconclusive: 20.6 µM [cytotoxic, single point]

**Q.** Which Potency does the source give for `C[C@@H]1CC=C[C@H]2[C@H]1C(=O)N(Cc1ccccc1)[C@H]2c1ccc(C(F)(F)F)cc1` here?
**A.** inconclusive: 14.6 µM [cytotoxic, partial curve, poor fit]

**Q.** For `COc1cc(SC)ccc1C(=O)N1CCN(c2ccccc2)CC1`, which Potency is on record?
**A.** inconclusive: 23.1 µM [cytotoxic, partial curve, poor fit]

**Q.** Which Potency does the source give for `CCc1nnc2c(N3CCN(c4cccc(C(F)(F)F)c4)CC3)nc3ccccc3n12` here?
**A.** inactive

**Q.** With `COc1ccc2[nH]c(=O)c(C(c3nnnn3C3CCCC3)N(C)C3CCCCC3)cc2c1` (stereo unspecified) as the compound, how does the Potency read?
**A.** inactive

**Q.** With `COc1cc2c3c(c1OC)-c1cc4c(cc1CC3(C#N)N(C(=O)c1ccccc1)CC2)OCO4` (stereo unspecified) as the compound, how does the Potency read?
**A.** inactive

**Q.** With `COc1cccc(CNc2ncnc3onc(C)c23)c1` as the compound, how does the Potency read?
**A.** active: 20.6 µM

**Q.** Which activity change, negative = cytotoxic does the source give for `O=C(NCc1ccccc1)NCc1cccs1` here?
**A.** inconclusive: -5.28%

**Q.** With `Cc1c(C(=O)OCC(=O)N(C)CC(=O)Nc2ccc(F)cc2)oc2ccccc12` as the compound, how does the Potency read?
**A.** inactive

**Q.** For `COc1ccc(CCNC(=S)c2ccccc2)cc1OC`, which Potency is on record?
**A.** inconclusive: 29.1 µM [cytotoxic, single point]

**Q.** For `CN(C)c1ccc(/C=[N+](\[O-])C2N(c3ccccc3)C(=S)SC2(C)C)cc1` (stereo unspecified), which Potency is on record?
**A.** inconclusive: 0.231 µM [cytotoxic, full curve]

**Q.** For `Cc1cc(/C=C2/NC(=O)NC2=O)c(C)n1-c1ccncc1`, which Potency is on record?
**A.** inactive

**Q.** For `CS(=O)(=O)n1nc(C(=O)N2CCOCC2)nc1N`, which Potency is on record?
**A.** inactive

**Q.** With `CCn1c(SCc2ccc(Cl)cc2)nnc1-c1ccccc1` as the compound, how does the Potency read?
**A.** inactive

**Q.** Which Potency does the source give for `CC(C)CC(=O)NC(=S)NNC(=O)c1ccc([N+](=O)[O-])cc1` here?
**A.** inconclusive: 29.1 µM [cytotoxic, single point]

**Q.** For `CCOC(=O)[C@]12CCCC=C1N(Cc1ccco1)C(=O)[C@H](CC(=O)NCCCCc1ccccc1)C2`, which Potency is on record?
**A.** inconclusive: 29.1 µM [cytotoxic, single point]

**Q.** With `Cc1ccc2nc(Cl)c3cc(C(=O)NCCCN4CCCC4)sc3c2c1` as the compound, how does the Potency read?
**A.** inconclusive: 29.1 µM [cytotoxic, single point]

**Q.** Which Potency does the source give for `COc1cccc(-c2cc(C(=O)NCCCN3CCOCC3)no2)c1` here?
**A.** inconclusive: 2.31 µM [rising, partial curve]

**Q.** For `O=C(Nc1ccc(C(=O)N2CCCCC2)cc1)c1nsc2ccccc12`, which Potency is on record?
**A.** inconclusive: 14.6 µM [cytotoxic, partial curve, poor fit]

**Q.** With `COc1cc(Cl)c(C)cc1NC(=O)CCc1c(C)nc2c3cccnc3nn2c1C` as the compound, how does the Potency read?
**A.** inactive

**Q.** Which Potency does the source give for `c1ccc(-c2nc(-c3cccs3)[nH]c2-c2ccccc2)cc1` here?
**A.** inconclusive: 29.1 µM [cytotoxic, single point]

**Q.** With `O=[N+]([O-])c1ccccc1C=NN1CCCCCC1` as the compound, how does the Potency read?
**A.** inactive

**Q.** Which Potency does the source give for `COCCNC(=O)/C(C#N)=C\c1ccc(CNC(=O)C(=O)Nc2ccc(C)c(C)c2)o1` here?
**A.** inactive

**Q.** Which Potency does the source give for `Cc1cc(C)cc(NS(=O)(=O)c2ccc(NC(=S)NC(=O)c3ccc(Br)o3)cc2)c1` here?
**A.** inconclusive: 29.1 µM [cytotoxic, single point]

**Q.** Which Potency does the source give for `COc1ccccc1OCC(=O)N(Cc1nc(-c2ccccc2)no1)C1CCCCC1` here?
**A.** inconclusive: 29.1 µM [cytotoxic, single point]

**Q.** For `Clc1ccc(Nc2nc(NCCN3CCOCC3)nc(N3CCOCC3)n2)cc1`, which Potency is on record?
**A.** inconclusive: 29.1 µM [cytotoxic, single point]

**Q.** Which Potency does the source give for `Clc1cccc(CN2CCc3c([nH]c4ccccc34)C2)c1` here?
**A.** inconclusive: 29.1 µM [cytotoxic, single point]

**Q.** Which Potency does the source give for `CC(=O)Nc1cccc(-c2ccnc3c2CC(C(=O)Nc2ccc4c(c2)OCO4)O3)c1` (stereo unspecified) here?
**A.** active: 5.17 µM

**Q.** For `N#CC1=C2N=C(N)c3ccccc3N2C2=C(C(=O)CCC2)C1c1ccc(Cl)cc1` (stereo unspecified), which Potency is on record?
**A.** inconclusive: 13 µM [cytotoxic, partial curve, poor fit]

**Q.** Which activity change, negative = cytotoxic does the source give for `Cc1cccc(C)c1OCC(N)C(C)C` (stereo unspecified) here?
**A.** inconclusive: 0%

**Q.** Which Potency does the source give for `N/C(COc1cc(Cl)cc(Cl)c1)=N\O` here?
**A.** inactive

**Q.** Which Potency does the source give for `COc1ccc(CNC(=O)C2=C(C)C(=O)OC23CCCCC3)cc1OC` here?
**A.** inactive

**Q.** For `O=C(COC(=O)c1ccc(F)c(S(=O)(=O)N2CCOCC2)c1)NCc1ccco1`, which Potency is on record?
**A.** inconclusive: 25.9 µM [rising, single point]

**Q.** With `CCCC1=C(C(=O)OCC)C(/C=C/c2ccccc2)n2ncnc2N1` (stereo unspecified) as the compound, how does the Potency read?
**A.** active: 8.91 µM
